Reference: patent US20060167081A1, “Ep4 receptor agonists” (priority 2002, published 2006)
At least one compound was matched to its structure with a doubt left.

Test system: EP4 mRNA
Test: EP4 mRNA levels in bone derived cell lines (Northern blot)
Assay type: cell-based, rat
Settings: RCT-1 cells
Protocol: Cell Cultures—RP-1 periosteal cells are spontaneously immortalized from primary cultures of periosteal cells from tibae of 4-week old Sprague-Dawley rats and are cultured in DMEM (BRL, Gaithersburg, Md.) with 10% fetal bovine serum (JRP Biosciences, Lenexa, KS). […] RCT-1 and RCT-3 are clonal cell lines immortalized by SV40 large T antigen from cells released from fetal rat calvair by a cmbination collagenase/hyaluronidase digestion. RCT-1 cells, derived from cells released during the first 10 minutes of digestion (fraction I), are cultured in RPMI 1640 medium (BRL) with 10% fetal bovine serum and 0.4 mg/ml G418 (BRL). These cells differentiate and express osteoblastic features upon retinoic acid treatment. RCT-3 cells, immortalized from osteoblast-enriched fraction m cells, are cultured in F-12 medium (BRL) with 5% Fetal bovine serum and 0.4 mg/ml G418. TRAB-11 cells are also immortalized by SV40 large T antigen from adult rat tibia and are cultured in RPMI 1640 medium with 10% FBS and 0.4 mg/ml G418. ROS 17/12.8 rat osteosarcoma cells are cultured in F-12 containing 5% PBS. Osteoblast-enriched (fraction III) primary fetal rat calvaria cells are obtained by collagenase/hyaluronidase digestion of calvariae of 19 day-old rat fetuses. […]

## CC1=C(/C=C/C(C)=C/C=C/C(C)=C/C(=O)O)C(C)(C)CCC1 [retinoic acid]
  levels of EP4 mRNA: reduces
